Reference: PubChem BioAssay AID1259308 (NCATS, 2017)
Purpose: 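Genes whose loss raises luciferase production in HEK293 cells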 (primary screen). Cells: human HEK293 embryonic kidney cells stably expressing firefly luciferase (HEK-CMV-Luc2-Hygro). Reagent: single siRNA against human genes, 0.8 pmol siRNA per well. Time to read-out: 72 h. Measurement: 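Luciferase light (ONE-Glo) measured on one replicate plate set and viability (CellTiter-Glo) on the other, scaled to a negative control siRNA, with robust z-scores and luciferase per cell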. Direction: total luciferase, z-score and total luciferase, % of control: higher = more reporter protein produced; luciferase per cell, z-score: higher = more reporter output per viable cell; viable cells, % of control: higher = more viable cells. Active means: 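An siRNA counts as active if its total luciferase robust z-score exceeds 3; genes with two or more such siRNAs out of three were retested with fresh siRNAs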. Calls: active = raised luciferase; inactive = no rise.
This is a random part of about 59,000 deposited reagents. About 1,510 of all reagents (2.6%) count as active. 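Calls use total luciferase alone and ignore viability, so some active siRNAs may act by altering cell number.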 The numbers tell different reagents against one gene apart. Reagent sequences are not shown.

gene	reagent	total luciferase, z-score	total luciferase, % of control	luciferase per cell, z-score	viable cells, % of control	outcome
PATJ (GeneID 10207)	1	-0.0965	80	-0.623	105	inactive
PATJ (GeneID 10207)	2	-0.0889	80.1	-0.685	107	inactive
PATJ (GeneID 10207)	3	0.293	87.7	0.457	86.9	inactive
FHIP2B (GeneID 64760)	1	-1.36	54.9	-0.948	78.7	inactive
FHIP2B (GeneID 64760)	2	0.452	90.9	2.33	55	inactive
FHIP2B (GeneID 64760)	3	0.0985	83.8	0.486	82.4	inactive
SLAIN2 (GeneID 57606)	1	1.86	119	2.23	73.8	inactive
SLAIN2 (GeneID 57606)	2	-1.62	49.6	-1.18	75.6	inactive
SLAIN2 (GeneID 57606)	3	1.57	113	1.19	92.5	inactive
FGFR1 (GeneID 2260)	1	0.155	85	0.602	81	inactive
FGFR1 (GeneID 2260)	2	-0.362	74.7	-0.891	106	inactive
FGFR1 (GeneID 2260)	3	-0.882	64.3	-1.64	111	inactive
FGD4 (GeneID 121512)	1	2.48	131	1.99	86.8	inactive
FGD4 (GeneID 121512)	2	0.312	88.1	0.747	80.9	inactive
FGD4 (GeneID 121512)	3	0.245	86.8	0.279	90.1	inactive
A1BG (GeneID 1)	1	-0.579	70.4	-0.566	91.3	inactive
A1BG (GeneID 1)	2	0.4	89.8	0.986	77.4	inactive
A1BG (GeneID 1)	3	-0.19	78.1	0.264	81.4	inactive
BAD (GeneID 572)	1	-1.99	42.3	-2.32	87.1	inactive
BAD (GeneID 572)	2	0.817	98.1	-0.126	113	inactive
BAD (GeneID 572)	3	0.267	87.2	-0.71	117	inactive
NEDD1 (GeneID 121441)	1	0.0251	82.4	0.272	85.7	inactive
NEDD1 (GeneID 121441)	2	1.25	107	0.693	99.3	inactive
NEDD1 (GeneID 121441)	3	0.597	93.8	1.22	76.1	inactive
FILIP1L (GeneID 11259)	1	0.919	100	0.879	88.8	inactive
FILIP1L (GeneID 11259)	2	1.41	110	0.839	98.5	inactive
FILIP1L (GeneID 11259)	3	-0.5	71.9	-0.182	84.4	inactive

Next part (6 carried over from the part before).
gene	reagent	total luciferase, z-score	total luciferase, % of control	luciferase per cell, z-score	viable cells, % of control	outcome
NEDD1 (GeneID 121441)	1	0.0251	82.4	0.272	85.7	inactive
NEDD1 (GeneID 121441)	2	1.25	107	0.693	99.3	inactive
NEDD1 (GeneID 121441)	3	0.597	93.8	1.22	76.1	inactive
FILIP1L (GeneID 11259)	1	0.919	100	0.879	88.8	inactive
FILIP1L (GeneID 11259)	2	1.41	110	0.839	98.5	inactive
FILIP1L (GeneID 11259)	3	-0.5	71.9	-0.182	84.4	inactive
H1-6 (GeneID 3010)	1	-0.0897	80.1	-0.176	93.7	inactive
H1-6 (GeneID 3010)	2	-1.77	46.8	-1.3	73.6	inactive
H1-6 (GeneID 3010)	3	0.905	99.9	0.453	99.1	inactive
CCDC172 (GeneID 374355)	1	0.467	91.2	0.678	85.2	inactive
CCDC172 (GeneID 374355)	2	-0.609	69.8	0.0836	76.3	inactive
CCDC172 (GeneID 374355)	3	1.94	121	1.01	103	inactive
KLRC3 (GeneID 3823)	1	0.00972	82.1	0.237	86.2	inactive
KLRC3 (GeneID 3823)	2	-0.508	71.8	-0.74	97.4	inactive
KLRC3 (GeneID 3823)	3	-0.543	71.1	-1.35	113	inactive
WTAP (GeneID 9589)	1	-1.82	45.7	-1.38	73.4	inactive
WTAP (GeneID 9589)	2	-2.69	28.3	-1.69	49.3	inactive
WTAP (GeneID 9589)	3	-2.66	29	-2.58	63.9	inactive
TIPE3 (GeneID 388121)	1	-1.15	59	0.447	58.6	inactive
TIPE3 (GeneID 388121)	2	-1.08	60.3	-1.02	88.1	inactive
TIPE3 (GeneID 388121)	3	0.017	82.2	-0.479	104	inactive
PPP1R16B (GeneID 26051)	1	0.259	87	0.445	86.5	inactive
PPP1R16B (GeneID 26051)	2	2.06	123	1.9	83.2	inactive
PPP1R16B (GeneID 26051)	3	3.03	142	2.34	85.8	active
TBC1D10A (GeneID 83874)	1	-0.0339	81.2	0.238	85.2	inactive
TBC1D10A (GeneID 83874)	2	0.689	95.6	1.33	75.2	inactive
TBC1D10A (GeneID 83874)	3	-0.257	76.8	0.32	78.9	inactive
OSR2 (GeneID 116039)	1	-0.4	73.9	0.178	78.8	inactive
OSR2 (GeneID 116039)	2	0.223	86.3	0.763	78.9	inactive
OSR2 (GeneID 116039)	3	-0.469	72.6	-0.391	89.9	inactive
TLL2 (GeneID 7093)	1	-2.15	39.2	-0.949	56.3	inactive
TLL2 (GeneID 7093)	2	-0.288	76.2	-1.15	115	inactive
TLL2 (GeneID 7093)	3	1.88	119	0.349	122	inactive
GRK3 (GeneID 157)	1	1.19	106	1.1	88.2	inactive
GRK3 (GeneID 157)	2	1.21	106	0.0995	115	inactive
GRK3 (GeneID 157)	3	2.36	129	1.58	95	inactive
